# Results reported in the supplement of paper PMC4604168 (melanoma cell lines).
# The other results are listed elsewhere or left out. Many values rest on one well or one pass, so single values are uncertain.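 Imaging used 1,536-well plates; nuclei positive for cleaved PARP by antibody were divided by total DNA-stained nuclei to yield the apoptosis fraction. Doses for screening kept most cells viable, and cell lines differ markedly in resting and induced cleaved-PARP levels.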
# How the values were obtained:
# Assay in all cases: cleaved PARP positive nuclei fraction relative to DMSO control; melanoma cells; higher = more apoptosis
# Conditions in all cases: library dose: low library concentration; 72 h
# 501Mel = test system: 501Mel
# A101D = test system: A101D
# A2058 = test system: A2058
# A375 = test system: A375
# C32 = test system: C32
# CBRC008 = test system: CBRC008 (line from a melanoma biopsy)
# CBRC014 = test system: CBRC014 (line from a melanoma biopsy)
# CBRC016 = test system: CBRC016 (line from a melanoma biopsy)
# CBRC017 = test system: CBRC017 (line from a melanoma biopsy)
# CBRC034 = test system: CBRC034 (line from a melanoma biopsy)
# COLO792 = test system: COLO792
# COLO800 = test system: COLO800
# COLO829 = test system: COLO829
# G361 = test system: G361
# IPC-298 = test system: IPC-298
# IST-MEL1 = test system: IST-MEL1
# LB2518-MEL = test system: LB2518-MEL
# LOXIMVI = test system: LOXIMVI
# MEL-HO = test system: MEL-HO
Structure (SMILES),cleaved PARP positive nuclei fraction (501Mel) [%],cleaved PARP positive nuclei fraction (A101D) [%],cleaved PARP positive nuclei fraction (A2058) [%],cleaved PARP positive nuclei fraction (A375) [%],cleaved PARP positive nuclei fraction (C32) [%],cleaved PARP positive nuclei fraction (CBRC008) [%],cleaved PARP positive nuclei fraction (CBRC014) [%],cleaved PARP positive nuclei fraction (CBRC016) [%],cleaved PARP positive nuclei fraction (CBRC017) [%],cleaved PARP positive nuclei fraction (CBRC034) [%],cleaved PARP positive nuclei fraction (COLO792) [%],cleaved PARP positive nuclei fraction (COLO800) [%],cleaved PARP positive nuclei fraction (COLO829) [%],cleaved PARP positive nuclei fraction (G361) [%],cleaved PARP positive nuclei fraction (IPC-298) [%],cleaved PARP positive nuclei fraction (IST-MEL1) [%],cleaved PARP positive nuclei fraction (LB2518-MEL) [%],cleaved PARP positive nuclei fraction (LOXIMVI) [%],cleaved PARP positive nuclei fraction (MEL-HO) [%]
"Cc1cc(Nc2cc(N3CCN(C)CC3)nc(/C=C/c3ccccc3)n2)n[nH]1 + COCC[n+]1c2c(n(Cc3cnccn3)c1C)C(=O)c1ccccc1C2=O [YM155] (first compound 0.04 µM, partner dose 0.0004 µM)",91.8,48.7,103,139,92.8,162,93.8,106,100,107,87,93.5,89.2,59.6,45.5,211,112,200,121
"Cn1c(=O)n(-c2ccc(C(C)(C)C#N)cc2)c2c3cc(-c4cnc5ccccc5c4)ccc3ncc21 + Cn1nnc2c(C(N)=O)ncn2c1=O [temozolomide] (first compound 0.004 µM, partner dose 2 µM)",136,52.7,112,229,92.5,99.2,116,139,221,69.4,122,53.3,137,100,92.6,72.2,106,73,57.4
"CS(=O)(=O)CCNCc1ccc(-c2ccc3ncnc(Nc4ccc(OCc5cccc(F)c5)c(Cl)c4)c3c2)o1 [lapatinib] + COc1ccc(Cl)c(Nc2nc3ccccc3nc2NS(=O)(=O)c2cccc(NC(=O)C(C)(C)N)c2)c1 [XL147] (first compound 0.8 µM, partner dose 0.8 µM)",156,104,90.6,143,74.2,83,118,106,119,292,65.7,68.6,132,61,29.9,131,55.2,93.6,38
"Cc1cc(Nc2cc(N3CCN(C)CC3)nc(/C=C/c3ccccc3)n2)n[nH]1 + Nc1ncn([C@H]2C[C@H](O)[C@@H](CO)O2)c(=O)n1 [decitabine] (first compound 0.04 µM, partner dose 0.1 µM)",102,67.2,143,115,72.6,62.3,108,154,122,77.4,107,124,165,28,66.4,80.7,128,154,79.2
"Nc1nc(F)nc2c1ncn2[C@@H]1O[C@H](CO)[C@@H](O)[C@@H]1O [fludarabine] + COCC[n+]1c2c(n(Cc3cnccn3)c1C)C(=O)c1ccccc1C2=O [YM155] (first compound 0.2 µM, partner dose 0.0004 µM)",7420,103,92,4590,74.6,342,132,74.9,125,144,96.1,77.7,147,173,54.7,146,106,180,100
"O=C(O)[C@@H]1[O][Sb](=[O])([O][Sb]2(=[O])[O][C@H]([C@H](O)CO)[C@H](O)[C@H](C(=O)O)[O]2)[O][C@H]([C@H](O)CO)[C@@H]1O (some centres not stated) [stibogluconate] + Cn1nnc2c(C(N)=O)ncn2c1=O [temozolomide] (first compound 2 µM, partner dose 2 µM)",54.6,49.7,95.6,99.8,72.4,92.6,111,135,73.8,73.9,79.5,195,60.3,74.5,90.1,66.7,223,39,135
"CC(C)C[C@H](NC(=O)[C@H](Cc1ccccc1)NC(=O)c1cnccn1)B(O)O [Bortezomib] + CNC(=O)c1cc(Oc2ccc(NC(=O)Nc3ccc(Cl)c(C(F)(F)F)c3)cc2)ccn1 [sorafenib] (first compound 0.001 µM, partner dose 0.4 µM)",449,1510,153,80.5,76.7,488,182,2230,320,239,76.8,98.2,341,4630,140,78.7,370,77.9,209
"CN1CCN(c2ccc3nc(-c4c(N)c5c(F)cccc5[nH]c4=O)[nH]c3c2)CC1 [Dovitinib] + Cc1nc(Nc2ncc(C(=O)Nc3c(C)cccc3Cl)s2)cc(N2CCN(CCO)CC2)n1 [dasatanib] (first compound 0.1 µM, partner dose 0.004 µM)",211,110,188,139,82.6,90.4,108,26.8,86.8,97.4,73.7,154,149,84.3,87.2,207,139,237,125
